PubChem BioAssay AID743454 | Peter MacCallum Cancer Centre – 2014
Aim: 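Knock-downs lowering viability or raising caspase 3/7 activity in vorinostat-treated resistant cells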 (primary screen). System: human HCT116-VR colon cancer cells, selected for vorinostat resistance. Reagent: siRNA pool against human genes, 40 nM siRNA pool. Time to read-out: vorinostat for 24 h, read-out about 72 h after transfection. Treatment: vorinostat at 2.5 µM final. Measured: 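Cell viability by CellTiter-Fluor and caspase 3/7 activity by luminescence, each scaled to mock wells per plate, duplicates averaged, then robust z-scored over all plates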. Reading the numbers: viability robust z-score: higher = more viable cells than screen typical; caspase robust z-score: higher = more caspase 3/7 activity than screen typical. Call rule: 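a knock-down is a hit when classed RV1 or RV2 for lowered viability, or CA1 or CA2 for caspase activation; those lethal without drug were dropped; hits were retested singly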.
This is an unselected part of about 18,000 reagents tested. Over the whole deposit, 450 (2.5%) are marked active. 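Single biological run; no consistent viability z cut-off exists, so the class columns, not z-scores, define the calls.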 The numbers tell different reagents against one gene apart.

Gene | reagent | viability hit class | caspase hit class | viability robust z-score | caspase robust z-score | outcome
AKR1D1 | 1 | no change | no change | 0.12 | 4.06 | inactive
SYNE1 | 1 | no change | no change | -0.05 | -0.94 | inactive
ITGB3 | 1 | no change | no change | -1.22 | 2.43 | inactive
IL36B | 1 | no change | no change | 0.5 | 0.26 | inactive
RAB11B | 1 | no change | no change | -0.7 | -0.82 | inactive
MTDH | 1 | no change | no change | -0.74 | -0.41 | inactive
RIGI | 1 | no change | no change | 0.7 | 0.34 | inactive
NUDT15 | 1 | no change | CA1 (caspase activation) | -1.84 | 5.8 | active
CFAP47 | 1 | no change | no change | -1.6 | 2.92 | inactive
CFAP47 | 2 | no change | no change | 0.29 | -0.44 | inactive
ATP8B1 | 1 | no change | no change | -0.06 | 2.17 | inactive
ZFYVE9 | 1 | no change | no change | 0.98 | 0.34 | inactive
MRC2 | 1 | no change | no change | -2.79 | 4.26 | inactive
AURKB | 1 | no change | no change | -2.54 | 0.7 | inactive
CEP170B | 1 | no change | no change | -0.64 | 0.66 | inactive
PAGE2 | 1 | no change | no change | 0.52 | 0.82 | inactive
SLC7A13 | 1 | no change | no change | 1.16 | -0.41 | inactive
DESI2 | 1 | no change | no change | -1.06 | 4.69 | inactive
IL19 | 1 | no change | no change | 0.01 | -0.16 | inactive
ERVFRD-1 | 1 | no change | no change | -0.4 | -0.84 | inactive
FHOD1 | 1 | no change | no change | -0.24 | 1.49 | inactive
SPRED2 | 1 | no change | no change | 0.75 | 1.81 | inactive
FLVCR2 | 1 | no change | no change | -1.03 | -0.48 | inactive
CDH7 | 1 | no change | no change | 0.34 | -0.64 | inactive
CYP26C1 | 1 | no change | no change | 0.32 | 0.37 | inactive
ORC5 | 1 | no change | no change | 0.7 | -0.54 | inactive
ZNF593 | 1 | no change | no change | -0.3 | 1.76 | inactive
KCNQ5 | 1 | no change | no change | 1.7 | -0.44 | inactive
OR3A3 | 1 | no change | no change | 0.3 | 0.56 | inactive
ZBTB11 | 1 | no change | no change | 1.52 | 1.38 | inactive
BRIX1 | 1 | no change | no change | -1.79 | 0.74 | inactive
IPMK | 1 | no change | no change | -0.62 | 3.32 | inactive
OR10J1 | 1 | no change | no change | -0.25 | -0.18 | inactive
NOP10 | 1 | no change | no change | 0.56 | 0.12 | inactive
SLC6A16 | 1 | no change | no change | -1.54 | 3.59 | inactive
PF4V1 | 1 | no change | no change | 0.76 | -0.04 | inactive
OR5M11 | 1 | no change | no change | -0.15 | -0.36 | inactive
RPP38 | 1 | no change | no change | 0.09 | 0.5 | inactive
UBL7 | 1 | no change | no change | 1 | -0.71 | inactive
FSCN1 | 1 | no change | no change | -0.32 | 1.22 | inactive
ZNF22 | 1 | no change | no change | -0.32 | -0.93 | inactive
PLEKHO1 | 1 | no change | no change | 0.44 | 0.9 | inactive
ITGA11 | 1 | no change | no change | -0.26 | -0.01 | inactive
TMEM179B | 1 | no change | no change | 0.55 | -0.92 | inactive
OFD1 | 1 | no change | no change | 1.2 | -0.65 | inactive
TENT5D | 1 | no change | no change | 1.6 | 0.93 | inactive
SPATA12 | 1 | no change | no change | 1.11 | 0.3 | inactive
SPIN2A | 1 | no change | no change | 0.74 | -1.28 | inactive
EIF5A2 | 1 | no change | no change | -0.33 | 0.12 | inactive
COL28A1 | 1 | no change | no change | 1.86 | 0.74 | inactive
SDR9C7 | 1 | no change | no change | -0.24 | -0.08 | inactive
OVOL2 | 1 | no change | no change | 0.39 | 4.49 | inactive
KYAT3 | 1 | no change | no change | -0.1 | 1.19 | inactive
TMEM43 | 1 | no change | no change | -0.64 | 0.9 | inactive
BCL9L | 1 | no change | no change | 1.15 | -0.46 | inactive
ZNF644 | 1 | no change | no change | 1.92 | -0.56 | inactive
DLL4 | 1 | no change | no change | -0.29 | 0.47 | inactive
CXXC1 | 1 | no change | no change | -1.35 | 1.57 | inactive
TNFRSF4 | 1 | no change | no change | -1.75 | 0.68 | inactive
H1-7 | 1 | no change | no change | 0.43 | 0.47 | inactive
ASB5 | 1 | no change | no change | -0.14 | 0.01 | inactive
CKS2 | 1 | no change | no change | 0.93 | -0.34 | inactive
TUBB7P | 1 | no change | no change | -3.5 | 1.57 | inactive
RTL10 | 1 | no change | no change | -3.96 | 2.48 | inactive
RETN | 1 | no change | no change | 0.3 | -1.31 | inactive
C8A | 1 | no change | no change | 0.46 | -0.58 | inactive
PPP1R16A | 1 | no change | no change | 1.62 | 0.06 | inactive
KRT222 | 1 | no change | no change | 0.65 | 0.57 | inactive
ATP1A2 | 1 | no change | no change | 1 | -0.51 | inactive
PHYHIPL | 1 | no change | no change | -0.64 | 0.27 | inactive
CKMT2 | 1 | no change | no change | -0.33 | -0.83 | inactive
MARCHF3 | 1 | no change | no change | 0.75 | 0.09 | inactive
CMTM7 | 1 | no change | no change | 0.16 | -0.18 | inactive

Copied from the entries so far for reference:
Gene | reagent | viability hit class | caspase hit class | viability robust z-score | caspase robust z-score | outcome
ASB5 | 1 | no change | no change | -0.14 | 0.01 | inactive
CKS2 | 1 | no change | no change | 0.93 | -0.34 | inactive
TUBB7P | 1 | no change | no change | -3.5 | 1.57 | inactive
RTL10 | 1 | no change | no change | -3.96 | 2.48 | inactive
RETN | 1 | no change | no change | 0.3 | -1.31 | inactive
C8A | 1 | no change | no change | 0.46 | -0.58 | inactive
PPP1R16A | 1 | no change | no change | 1.62 | 0.06 | inactive
